PubChem BioAssay AID1508597 – Cure First | 2020
The whole screen tested about 2,100 reagents; below is an unselected part. 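Calls flag viability under 80% in either arm, not effects specific to rucaparib; the reference for percent is not stated.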 A reagent listed more than once was tested more than once; the source does not tell the runs apart. Not stated in the record: the 100% reference.

Test: 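Knock-downs altering ovarian cancer cell survival with or without PARP inhibitor rucaparib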 (primary screen)
System: human ovarian carcinoma lines grown from tumours: OCI-P5x (papillary serous) and OCI-C5x (clear cell)
Reagents: siRNA pool against human genes, 1.25 pmol siRNA per well
Duration: 72 h or 96 h, depending on the cell culture
Conditions: rucaparib 20 µM (about IC30) or vehicle, present until read-out
Measured: 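Luminescent ATP-based viability assay read 72 or 96 h after transfection, depending on culture, given as normalised percent viability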
Scale: viability, normalised: higher = more viable cells remaining
Hit rule: 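a well counts as a hit if its normalised viability is under 80 percent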
Meaning of the calls: active = viability under 80%; inactive = viability 80% or more

{"target gene": "TJP1", "rucaparib or vehicle": "Rucaparib", "cell line": "OCI-C5x (clear cell)", "technical replicate": "1", "viability, normalised (%)": 42.7, "Outcome": "active"}
{"target gene": "TJP1", "rucaparib or vehicle": "Rucaparib", "cell line": "OCI-C5x (clear cell)", "technical replicate": "2", "viability, normalised (%)": 47.6, "Outcome": "active"}
{"target gene": "TJP1", "rucaparib or vehicle": "Rucaparib", "cell line": "OCI-C5x (clear cell)", "technical replicate": "3", "viability, normalised (%)": 61.8, "Outcome": "active"}
{"target gene": "TJP1", "rucaparib or vehicle": "Rucaparib", "cell line": "OCI-P5x (serous)", "technical replicate": "1", "viability, normalised (%)": 74.1, "Outcome": "active"}
{"target gene": "TJP1", "rucaparib or vehicle": "Rucaparib", "cell line": "OCI-P5x (serous)", "technical replicate": "2", "viability, normalised (%)": 71.7, "Outcome": "active"}
{"target gene": "TJP1", "rucaparib or vehicle": "Rucaparib", "cell line": "OCI-P5x (serous)", "technical replicate": "3", "viability, normalised (%)": 56.8, "Outcome": "active"}
{"target gene": "TJP1", "rucaparib or vehicle": "Vehicle", "cell line": "OCI-C5x (clear cell)", "technical replicate": "1", "viability, normalised (%)": 96.3, "Outcome": "inactive"}
{"target gene": "TJP1", "rucaparib or vehicle": "Vehicle", "cell line": "OCI-C5x (clear cell)", "technical replicate": "2", "viability, normalised (%)": 57.8, "Outcome": "active"}
{"target gene": "TJP1", "rucaparib or vehicle": "Vehicle", "cell line": "OCI-C5x (clear cell)", "technical replicate": "3", "viability, normalised (%)": 58.8, "Outcome": "active"}
{"target gene": "TJP1", "rucaparib or vehicle": "Vehicle", "cell line": "OCI-P5x (serous)", "technical replicate": "1", "viability, normalised (%)": 49.6, "Outcome": "active"}
{"target gene": "TJP1", "rucaparib or vehicle": "Vehicle", "cell line": "OCI-P5x (serous)", "technical replicate": "2", "viability, normalised (%)": 48.3, "Outcome": "active"}
{"target gene": "TJP1", "rucaparib or vehicle": "Vehicle", "cell line": "OCI-P5x (serous)", "technical replicate": "3", "viability, normalised (%)": 55.3, "Outcome": "active"}

2 entries from above, sorted by “viability, normalised (%)”, low to high.
{"target gene": "TJP1", "rucaparib or vehicle": "Vehicle", "cell line": "OCI-C5x (clear cell)", "technical replicate": "2", "viability, normalised (%)": 57.8, "Outcome": "active"}
{"target gene": "TJP1", "rucaparib or vehicle": "Vehicle", "cell line": "OCI-C5x (clear cell)", "technical replicate": "1", "viability, normalised (%)": 96.3, "Outcome": "inactive"}

Further reagents follow:
{"target gene": "RPS6KB1", "rucaparib or vehicle": "Rucaparib", "cell line": "OCI-C5x (clear cell)", "technical replicate": "1", "viability, normalised (%)": 35.4, "Outcome": "active"}
{"target gene": "RPS6KB1", "rucaparib or vehicle": "Rucaparib", "cell line": "OCI-C5x (clear cell)", "technical replicate": "1", "viability, normalised (%)": 38.6, "Outcome": "active"}
{"target gene": "RPS6KB1", "rucaparib or vehicle": "Rucaparib", "cell line": "OCI-C5x (clear cell)", "technical replicate": "2", "viability, normalised (%)": 57.8, "Outcome": "active"}
{"target gene": "RPS6KB1", "rucaparib or vehicle": "Rucaparib", "cell line": "OCI-C5x (clear cell)", "technical replicate": "2", "viability, normalised (%)": 38.1, "Outcome": "active"}
{"target gene": "RPS6KB1", "rucaparib or vehicle": "Rucaparib", "cell line": "OCI-C5x (clear cell)", "technical replicate": "3", "viability, normalised (%)": 43.3, "Outcome": "active"}
{"target gene": "RPS6KB1", "rucaparib or vehicle": "Rucaparib", "cell line": "OCI-C5x (clear cell)", "technical replicate": "3", "viability, normalised (%)": 37.8, "Outcome": "active"}
{"target gene": "RPS6KB1", "rucaparib or vehicle": "Rucaparib", "cell line": "OCI-P5x (serous)", "technical replicate": "1", "viability, normalised (%)": 80, "Outcome": "inactive"}
{"target gene": "RPS6KB1", "rucaparib or vehicle": "Rucaparib", "cell line": "OCI-P5x (serous)", "technical replicate": "1", "viability, normalised (%)": 54.2, "Outcome": "active"}
{"target gene": "RPS6KB1", "rucaparib or vehicle": "Rucaparib", "cell line": "OCI-P5x (serous)", "technical replicate": "2", "viability, normalised (%)": 78.5, "Outcome": "active"}
{"target gene": "RPS6KB1", "rucaparib or vehicle": "Rucaparib", "cell line": "OCI-P5x (serous)", "technical replicate": "2", "viability, normalised (%)": 50.2, "Outcome": "active"}
{"target gene": "RPS6KB1", "rucaparib or vehicle": "Rucaparib", "cell line": "OCI-P5x (serous)", "technical replicate": "3", "viability, normalised (%)": 69.7, "Outcome": "active"}
{"target gene": "RPS6KB1", "rucaparib or vehicle": "Rucaparib", "cell line": "OCI-P5x (serous)", "technical replicate": "3", "viability, normalised (%)": 47.6, "Outcome": "active"}
{"target gene": "RPS6KB1", "rucaparib or vehicle": "Vehicle", "cell line": "OCI-C5x (clear cell)", "technical replicate": "1", "viability, normalised (%)": 53.1, "Outcome": "active"}
{"target gene": "RPS6KB1", "rucaparib or vehicle": "Vehicle", "cell line": "OCI-C5x (clear cell)", "technical replicate": "1", "viability, normalised (%)": 62.6, "Outcome": "active"}
{"target gene": "RPS6KB1", "rucaparib or vehicle": "Vehicle", "cell line": "OCI-C5x (clear cell)", "technical replicate": "2", "viability, normalised (%)": 67, "Outcome": "active"}
{"target gene": "RPS6KB1", "rucaparib or vehicle": "Vehicle", "cell line": "OCI-C5x (clear cell)", "technical replicate": "2", "viability, normalised (%)": 32.6, "Outcome": "active"}
{"target gene": "RPS6KB1", "rucaparib or vehicle": "Vehicle", "cell line": "OCI-C5x (clear cell)", "technical replicate": "3", "viability, normalised (%)": 48.8, "Outcome": "active"}
{"target gene": "RPS6KB1", "rucaparib or vehicle": "Vehicle", "cell line": "OCI-C5x (clear cell)", "technical replicate": "3", "viability, normalised (%)": 70.9, "Outcome": "active"}
{"target gene": "RPS6KB1", "rucaparib or vehicle": "Vehicle", "cell line": "OCI-P5x (serous)", "technical replicate": "1", "viability, normalised (%)": 58.5, "Outcome": "active"}
{"target gene": "RPS6KB1", "rucaparib or vehicle": "Vehicle", "cell line": "OCI-P5x (serous)", "technical replicate": "1", "viability, normalised (%)": 59.6, "Outcome": "active"}
{"target gene": "RPS6KB1", "rucaparib or vehicle": "Vehicle", "cell line": "OCI-P5x (serous)", "technical replicate": "2", "viability, normalised (%)": 61.4, "Outcome": "active"}
{"target gene": "RPS6KB1", "rucaparib or vehicle": "Vehicle", "cell line": "OCI-P5x (serous)", "technical replicate": "2", "viability, normalised (%)": 56.4, "Outcome": "active"}
{"target gene": "RPS6KB1", "rucaparib or vehicle": "Vehicle", "cell line": "OCI-P5x (serous)", "technical replicate": "3", "viability, normalised (%)": 67.3, "Outcome": "active"}
{"target gene": "RPS6KB1", "rucaparib or vehicle": "Vehicle", "cell line": "OCI-P5x (serous)", "technical replicate": "3", "viability, normalised (%)": 54.8, "Outcome": "active"}
